# These are yes or no findings as the source states them, for the method shown. Some binding calls cover weakened binding; strength is not graded here.
# Chains of the proteins cited; added tags and fusions are not shown. Lines headed by an entry give the natural chain unless they say otherwise; changes in a name come on top.
# UniProt P04386: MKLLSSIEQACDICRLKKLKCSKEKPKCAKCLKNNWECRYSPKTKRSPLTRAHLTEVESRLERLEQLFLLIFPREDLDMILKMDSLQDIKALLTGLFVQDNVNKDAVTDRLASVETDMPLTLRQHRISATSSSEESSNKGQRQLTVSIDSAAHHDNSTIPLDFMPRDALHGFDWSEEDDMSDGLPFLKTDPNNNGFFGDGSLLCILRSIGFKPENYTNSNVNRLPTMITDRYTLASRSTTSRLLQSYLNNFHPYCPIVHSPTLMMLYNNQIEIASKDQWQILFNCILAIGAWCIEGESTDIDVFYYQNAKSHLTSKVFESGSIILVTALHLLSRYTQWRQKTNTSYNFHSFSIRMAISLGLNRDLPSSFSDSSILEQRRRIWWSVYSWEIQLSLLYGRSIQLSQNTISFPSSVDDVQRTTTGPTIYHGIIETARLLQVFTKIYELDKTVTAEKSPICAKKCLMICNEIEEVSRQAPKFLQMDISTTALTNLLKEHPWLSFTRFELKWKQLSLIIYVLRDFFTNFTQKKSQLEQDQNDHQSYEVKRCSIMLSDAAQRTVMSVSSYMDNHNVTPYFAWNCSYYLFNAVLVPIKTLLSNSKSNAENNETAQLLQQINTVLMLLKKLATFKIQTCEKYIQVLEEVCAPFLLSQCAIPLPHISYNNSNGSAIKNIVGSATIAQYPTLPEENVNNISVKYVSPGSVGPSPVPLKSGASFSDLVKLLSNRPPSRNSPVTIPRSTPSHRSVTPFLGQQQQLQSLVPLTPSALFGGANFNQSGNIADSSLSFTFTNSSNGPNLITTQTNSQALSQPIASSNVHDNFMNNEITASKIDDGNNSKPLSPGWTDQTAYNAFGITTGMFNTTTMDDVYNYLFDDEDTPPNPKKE
# UniProt P31749: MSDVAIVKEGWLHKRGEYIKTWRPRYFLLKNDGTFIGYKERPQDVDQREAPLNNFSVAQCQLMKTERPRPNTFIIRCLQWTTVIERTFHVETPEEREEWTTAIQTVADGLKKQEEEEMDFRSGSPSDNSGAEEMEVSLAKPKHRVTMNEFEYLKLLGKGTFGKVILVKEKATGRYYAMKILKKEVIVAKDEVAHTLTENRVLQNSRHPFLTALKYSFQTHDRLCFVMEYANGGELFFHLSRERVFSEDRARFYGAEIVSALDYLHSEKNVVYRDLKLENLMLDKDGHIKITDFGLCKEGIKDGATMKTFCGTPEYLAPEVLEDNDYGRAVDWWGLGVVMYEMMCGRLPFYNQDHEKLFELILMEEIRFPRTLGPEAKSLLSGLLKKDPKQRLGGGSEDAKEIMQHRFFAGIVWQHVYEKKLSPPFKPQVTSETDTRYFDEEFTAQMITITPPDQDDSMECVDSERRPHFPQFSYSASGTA
# B1: protein encoded by the F-10 and F-12 cDNAs (C-terminal region of Girdin, residues 1217-1870) (protein, not shown: large carriers)
# chain: MLKVEQEKMLLENKNHETVAAEYKKLCGENDRLNHTYSQLLKETEVLQTDHKNLKSLLNNSKLEQTRLEAEFSKLKEQYQQLDITSTKLNNQCELLSQLKGNLEEENRHLLDQIQTLMLQNRTLLEQNMESKDLFHVEQRQYIDKLNELRRQKEKLEEKIMDQYKFYDPSPPRRRGNWITLKMRKLIKSKKDINRERQKSLTLTPTRSDSSEGFLQLPHQDSQDSSSVGSNSLEDGQTLGTKKSSMVALKRLPFLRNRPKDKDKMKACYRRSMSMNDLVQSMVLAGQWTGSTENLEVPDDISTGKRRKELGAMAFSTTAINFSTVNSSAGFRSKQLVNNKDTTSFEDISPQGVSDDSSTGSRVHASRPASLDSGRTSTSNSNNNASLHEVKAGAVNNQSRPQSHSSGEFSLLHDHEAWSSSGSSPIQYLKRQTRSSPVLQHKISETLESRHHKIKTGSPGSEVVTLQQFLEESNKLTSVQIKSSSQENLLDEVMKSLSVSSDFLGKDKPVSCGLARSVSGKTPGDFYDRRTTKPEFLRPGPRKTEDTYFISSAGKPTPGTQGKIKLVKESSLSRQSKDSNPYATLPRASSVISTAEGTTRRTSIHDFLTKDSRLPISVDSPPAAADSNTTAASNVDKVQESRNSKSRSREQQSS
# Target: carboxyl-terminal regulatory domain (RD) of human Akt1 fused to GAL4DB (human) (UniProt P04386+P31749)
# Experiment: yeast two-hybrid binding assay
binder,measurement,value
B1,binding,binds

# Reference: US20160041176A1
